# Primary screen of a compound library

Measurements from “University of Dundee, Small-Polar-MMV Screening Library” (2021), ChEMBL document CHEMBL3988442.

Each number is a percent effect as filed.
The record does not define 0% and 100%; most values in the screen are far below 50% and negative numbers occur (in some assays of this library far below -100).
Compounds were drawn at random from those tested, without regard to their results.
Two or more numbers in one place are separate tests of the same structure; such repeats can differ widely.

A: 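Phenotypic screen: M. tuberculosis growth, cholesterol and DPPC medium, 4 days; the read-out is not stated. Tested at 50 µM. Higher reads as more growth inhibition (inferred: compounds with an IC50 in retests scored well above the rest). About 69,000 compounds were tested under these conditions; 0.54% (about 370) showed 50% or more at least once.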
B: 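Whole-cell growth test on Mycobacterium tuberculosis, read after 3 days in glucose-containing 7H9 medium; the read-out is not stated. Tested at 50 µM. The record gives no direction; compounds that gave an IC50 in retests scored well above the rest, so higher reads as more growth inhibition. Size under these conditions: about 69,000 compounds, about 760 of them at 50% or above in at least one test.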

CN(Cc1ccncc1)C1COC2(CCN(Cc3ccco3)CC2)C1.O=C(O)C(F)(F)F.O=C(O)C(F)(F)F.O=C(O)C(F)(F)F (centres undefined) gave A: -19.71%; B: -17.23%. For O=C(O)C(F)(F)F.c1coc(CN2CCC3(CC2)COC(COCC2CC2)C3)c1 (centres undefined) the result was A: -1.516%; B: -27.99%. Cc1cc(C(=O)N[C@H]2Cc3ccccc3[C@@H]2N)c(=O)[nH]c1C read A: -38.06%; B: 7.832%. With CCn1cc(S(=O)(=O)NCC(c2ccccc2)N2CCOCC2)c(C)n1 (centres undefined) the screen gave A: -11.74% & -2.717%; B: -23.86%. With COCCN1CCCC1c1nccnc1Nc1nc(C)cs1 (centres undefined) the screen gave A: 1.441%; B: 17.43%. O=C(O)C(F)(F)F.O=C(O)C(F)(F)F.[H][C@@]12CCN(c3ncccn3)[C@]1([H])CC[C@@H](C(=O)N1CCN(C)CC1)O2 gave A: 0.4336%; B: -18.87% & -4.855%. CCOc1ccc(SCCS(=O)(=O)CC)cc1 read A: 8.82% & 9.968%; B: -2.445%. CCN(CC)C(=O)CSc1ncc[nH]1 gave A: -10.49% & 10.72%; B: -8.48%.

Cc1cccc(N2CC3(CCN(S(=O)(=O)c4ccccc4)C3)CC2=O)c1 (centres undefined) read A: -7.388%; B: 0.5032% & 18.27%. CCN(Cc1cccc(NC(=O)COCCOC)c1)C(C)=O read A: -26.28%; B: -15.17%. O=S(=O)(N1CCOCC1)N1CCOC(CCc2ccccc2)C1 (centres undefined) read A: -6.004%; B: -10.77%. With O=C(NCCO)c1ccn(-c2ccc3ccccn23)n1 the screen gave A: -18.37%; B: -26.54%. COCCCC1(CO)CCCN(CCS(C)(=O)=O)C1 (centres undefined) read A: 1.016%; B: -3.666% & 5.981%. Result for CC(C)Cc1nnc2sc(-c3cc(C(C)C)n[nH]3)nn12 was A: 12.72%; B: -15.05%. With Cn1ccc(C(=O)N2CCCC(Cc3cccc4cccnc34)C2)n1 (centres undefined) the screen gave A: -25.74%; B: -30.49%. For CCOCCN1CCN(CCOC)CC1C (centres undefined) the result was A: -9.834%; B: 8.682%.

O=C(O)C(F)(F)F.O=C(O)C(F)(F)F.[H][C@@]12CN(CCOC)C[C@]1([H])[C@H](OC)CCN2Cc1cnn(C)c1 read A: -19.14%; B: -4.692%. Result for O=C(CCN1CCOCC1)NC(Cc1ccsc1)c1nccs1 (centres undefined) was A: 1.582% & 4.646%; B: -31.05%. With [H][C@@]12CCCO[C@]1([H])[C@H](OCC(=O)N(C)C)CN2Cc1c(C)noc1C the screen gave A: -9.278%; B: 14.23%. Result for O=C(O)C(F)(F)F.[H][C@@]12CCN(C(=O)Cc3ccccc3)[C@@]1([H])CC(=O)N2Cc1cccnc1 was A: -22.13%; B: -8.07%. Result for COCCN1CCC(NC(=O)Nc2cccc(F)c2)C1 (centres undefined) was A: 4.634% & -11.6%; B: -23.86%. For CC(C)C(C)NC(=O)Nc1ccc(CC(N)=O)cc1 (centres undefined) the result was A: -0.281%; B: 20.38%. For [H][C@@]12CS(=O)(=O)C[C@]1([H])N(C(=O)c1ccc3ccccc3n1)CCN2CCC the result was A: -33.63%; B: -2.86%. Cn1nnnc1SCC1Cc2ccccc2O1 (centres undefined) gave A: 9.985%; B: -26.21%.

With CSc1nnc(CC2CCN(C(=O)CCc3cccnc3)CC2)n1C the screen gave A: -9.335%; B: -22.19%. CCCN1CCC(CC(=O)NCc2cc(C)nn2C)CC1 read A: 1.608%; B: -12.93% & -2.579%. For Cc1csc(N2CCN(C(=O)C(C(C)C)n3cncn3)CC2)n1 (centres undefined) the result was A: 9.919%; B: 0.5971% & -53.53%. Result for CN(C)CCN1CCN(C)C2(CCN(c3nccs3)CC2)C1=O was A: 1.224%; B: -4.325% & 10%. COc1cc(CNC(C)Cn2cccn2)cc2c1OCCO2.Cl (centres undefined) gave A: 7.432%; B: 21.32%. For O=C(CCc1nc2cccnc2[nH]1)NCc1ccc2c(c1)OCO2 the result was A: 2.572%; B: 22.64%. Result for Cn1cc(C(=O)NCc2cn3c(n2)CN(C2CCOCC2)CC3)cn1.O=C(O)C(F)(F)F was A: -2.062%; B: 13.25%. With O=C(c1ccccc1)N1Cc2nccn2CC(Cn2ncccc2=O)C1 (centres undefined) the screen gave A: -6.7%; B: -13.81%.

Result for CC(C)(C)n1ncc(NCCc2ccccc2C(F)(F)F)c(Cl)c1=O was A: 1.189% & 8.709%; B: 15.1%.

For reference, 4 entries once more:

Result for O=C(O)C(F)(F)F.O=C(O)C(F)(F)F.[H][C@@]12CN(CCOC)C[C@]1([H])[C@H](OC)CCN2Cc1cnn(C)c1 was A: -19.14%; B: -4.692%.
Result for O=C(O)C(F)(F)F.O=C(O)C(F)(F)F.[H][C@@]12CCN(c3ncccn3)[C@]1([H])CC[C@@H](C(=O)N1CCN(C)CC1)O2 was A: 0.4336%; B: -18.87% & -4.855%.
Result for O=C(CCc1nc2cccnc2[nH]1)NCc1ccc2c(c1)OCO2 was A: 2.572%; B: 22.64%.
Result for CCN(Cc1cccc(NC(=O)COCCOC)c1)C(C)=O was A: -26.28%; B: -15.17%.